Data as given in PubChem BioAssay AID686938 (Drosophila RNAi Screening Center, 2013).
The deposit covers about 23,000 reagents; below is an unselected part of those that have a named target and a result. Over the whole deposit, 75 (0.33%) got an active call. 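Raw plate signals without normalisation; calls rest on plate z-scores that were not deposited; ratio present for only 364 wells.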 Not given: the dose of the treatment.

Aim: 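Fly genes required for calcium entry once internal stores are emptied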 (primary screen)
System: Drosophila S2R+ cells
Knock-down reagent: long dsRNA against Drosophila genes, about 0.25 µg dsRNA per well, roughly 10,000 cells
Duration: 5 days of knock-down before the calcium assay
Challenge: thapsigargin (SERCA pump blocker) to empty calcium stores; entry signal taken 4 min after adding it
Measured: 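Per-well fluo-4 fluorescence in two replicates, unnormalised, measured in resting cells and 4 min after store depletion by the SERCA blocker thapsigargin; ratio of the two present in few wells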
Reading the numbers: calcium entry signal: higher = stronger calcium signal after store depletion; resting calcium signal: higher = higher resting calcium signal
Hit rule: 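Called when the plate z-score of the entry-to-rest ratio, mean of duplicates, falls below −3; wells with low overall dye signal (Fmax z below −2) or more than five off-targets excluded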
Meaning of the calls: active = strongly reduced calcium entry; inactive = no strong reduction

| target | DRSC id | calcium entry signal, replicate 1 (fluorescence units) | calcium entry signal, replicate 2 (fluorescence units) | resting calcium signal, replicate 1 (fluorescence units) | resting calcium signal, replicate 2 (fluorescence units) | outcome |
| --- | --- | --- | --- | --- | --- | --- |
| Prosbeta4R2 (Proteasome beta4 subunit-related 2) | DRSC00503 | 3.81e7 | – | 2.10e7 | – | inactive |
| Mtpbeta (Mitochondrial trifunctional protein beta subunit) | DRSC04663 | 2.41e7 | – | 1.25e7 | – | inactive |
| Sam-S (S-adenosylmethionine Synthetase) | DRSC00758 | 2.99e7 | – | 1.53e7 | – | inactive |
| CG6933 | DRSC10751 | 2.97e7 | 4.35e7 | 1.44e7 | 3.03e7 | inactive |
| CG13386 | DRSC02260 | 3.14e7 | 4.07e7 | 1.61e7 | 1.88e7 | inactive |
| Pif1A (PFTAIRE-interacting factor 1A) | DRSC12708 | 3.16e7 | 4.60e7 | 1.59e7 | 2.28e7 | inactive |
| Pif1A (PFTAIRE-interacting factor 1A) | DRSC14383 | 5.11e7 | 3.83e7 | 2.50e7 | 1.94e7 | inactive |
| Rpn6 (Regulatory particle non-ATPase 6) | DRSC07541 | 1.32e7 | 2.51e7 | 1.07e7 | 1.71e7 | inactive |
| norpA (no receptor potential A) | DRSC18806 | 3.85e7 | 3.95e7 | 1.88e7 | 1.94e7 | inactive |
| Polr2H (RNA polymerase II, I and III subunit H) | DRSC11642 | 1.78e7 | 1.62e7 | 1.52e7 | 9.82e6 | inactive |
| CG13064 | DRSC09947 | 3.11e7 | 5.73e7 | 1.51e7 | 2.38e7 | inactive |
| CCKLR-17D1 (Cholecystokinin-like receptor at 17D1) | DRSC20010 | 3.74e7 | 3.22e7 | 1.67e7 | 1.34e7 | inactive |
| CCKLR-17D1 (Cholecystokinin-like receptor at 17D1) | DRSC20011 | 3.89e7 | 3.34e7 | 1.70e7 | 1.37e7 | inactive |
| CCKLR-17D1 (Cholecystokinin-like receptor at 17D1) | DRSC20012 | 4.00e7 | 3.84e7 | 1.74e7 | 1.40e7 | inactive |
| mh (maternal haploid) | DRSC20168 | 3.02e7 | 2.74e7 | 1.70e7 | 1.38e7 | inactive |
| CG8757 | DRSC11039 | 3.21e7 | 4.48e7 | 1.60e7 | 1.91e7 | inactive |
| CG3823 | DRSC18325 | 2.38e7 | 3.06e7 | 1.22e7 | 1.41e7 | inactive |
| CG6168 | DRSC10596 | 2.66e7 | 4.80e7 | 1.41e7 | 1.98e7 | inactive |
| CG34221 | DRSC06150 | 4.30e7 | 4.27e7 | 1.83e7 | 1.93e7 | inactive |
| CG7997 | DRSC07052 | 4.24e7 | 3.80e7 | 1.93e7 | 1.86e7 | inactive |
| CG32267 | DRSC21561 | 4.45e7 | 4.08e7 | 2.78e7 | 1.93e7 | inactive |
| Nprl2 (Nitrogen permease regulator-like 2) | DRSC20153 | 3.53e7 | 3.53e7 | 1.71e7 | 1.67e7 | inactive |
| His3.3B (Histone H3.3B) | DRSC17773 | 2.54e7 | 3.96e7 | 1.28e7 | 1.77e7 | inactive |
| His3.3B (Histone H3.3B) | DRSC18673 | 1.62e7 | 2.44e7 | 9.75e6 | 1.28e7 | inactive |
| CG3808 | DRSC10377 | 1.78e7 | 3.75e7 | 9.92e6 | 1.65e7 | inactive |
| PGRP-SC1b (Peptidoglycan recognition protein SC1b) | DRSC07215 | 4.60e7 | 4.10e7 | 1.92e7 | 1.91e7 | inactive |
| Prx2 (Peroxiredoxin 2) | DRSC20256 | 4.45e7 | 4.99e7 | 2.11e7 | 2.54e7 | inactive |
| RyR (Ryanodine receptor) | DRSC07543 | 2.56e7 | 1.75e7 | 1.29e7 | 1.12e7 | inactive |
| msk (moleskin) | DRSC11340 | 4.52e7 | 4.01e7 | 3.24e7 | 1.66e7 | inactive |
| CG9514 | DRSC20190 | 2.82e7 | 3.23e7 | 1.55e7 | 1.55e7 | inactive |
| CG9514 | DRSC20191 | 3.44e7 | 3.20e7 | 1.71e7 | 1.39e7 | inactive |
| CG8927 | DRSC16458 | 3.50e7 | 6.43e7 | 1.91e7 | 7.94e7 | inactive |
| CG5447 | DRSC15801 | 3.65e7 | 4.19e7 | 1.95e7 | 2.02e7 | inactive |
| l(3)73Ah (lethal (3) 73Ah) | DRSC11359 | 3.63e7 | 4.98e7 | 1.72e7 | 2.21e7 | inactive |
| dome (domeless) | DRSC19583 | 2.71e7 | 2.59e7 | 1.31e7 | 1.26e7 | inactive |
| aos (argos) | DRSC11323 | 3.77e7 | 5.51e7 | 1.84e7 | 2.18e7 | inactive |
| Gr61a (Gustatory receptor 61a) | DRSC08358 | 3.50e7 | 3.61e7 | 1.82e7 | 1.74e7 | inactive |
| CG14837 | DRSC10207 | 2.98e7 | 3.71e7 | 1.39e7 | 1.47e7 | inactive |
| ND-B22 (NADH dehydrogenase (ubiquinone) B22 subunit) | DRSC03193 | 3.22e7 | 2.13e7 | 1.66e7 | 1.12e7 | inactive |
| mRpL50 (mitochondrial ribosomal protein L50) | DRSC11015 | 5.45e7 | 3.46e7 | 3.61e7 | 1.73e7 | inactive |

In a second layout: 5 of the entries above.
CCKLR-17D1 (Cholecystokinin-like receptor at 17D1) [DRSC20010] | calcium entry signal, replicate 1 (fluorescence units) = 3.74e7; calcium entry signal, replicate 2 (fluorescence units) = 3.22e7; resting calcium signal, replicate 1 (fluorescence units) = 1.67e7; resting calcium signal, replicate 2 (fluorescence units) = 1.34e7; outcome = inactive
CCKLR-17D1 (Cholecystokinin-like receptor at 17D1) [DRSC20011] | calcium entry signal, replicate 1 (fluorescence units) = 3.89e7; calcium entry signal, replicate 2 (fluorescence units) = 3.34e7; resting calcium signal, replicate 1 (fluorescence units) = 1.70e7; resting calcium signal, replicate 2 (fluorescence units) = 1.37e7; outcome = inactive
CCKLR-17D1 (Cholecystokinin-like receptor at 17D1) [DRSC20012] | calcium entry signal, replicate 1 (fluorescence units) = 4.00e7; calcium entry signal, replicate 2 (fluorescence units) = 3.84e7; resting calcium signal, replicate 1 (fluorescence units) = 1.74e7; resting calcium signal, replicate 2 (fluorescence units) = 1.40e7; outcome = inactive
mh (maternal haploid) [DRSC20168] | calcium entry signal, replicate 1 (fluorescence units) = 3.02e7; calcium entry signal, replicate 2 (fluorescence units) = 2.74e7; resting calcium signal, replicate 1 (fluorescence units) = 1.70e7; resting calcium signal, replicate 2 (fluorescence units) = 1.38e7; outcome = inactive
CG8757 [DRSC11039] | calcium entry signal, replicate 1 (fluorescence units) = 3.21e7; calcium entry signal, replicate 2 (fluorescence units) = 4.48e7; resting calcium signal, replicate 1 (fluorescence units) = 1.60e7; resting calcium signal, replicate 2 (fluorescence units) = 1.91e7; outcome = inactive
